# The supplement of paper PMC8728848
# The list shows a part of the results.
# Key:
# Experiment in all cases: glycan array binding signal (z-score within array); higher = stronger binding
# Details in all cases: glycan notation: IUPAC condensed, linker removed
# [1] = target: Man(a1-3)[Man(a1-6)]Man(b1-4)GlcNAc(b1-4)GlcNAc
# Summary of the method: (§1)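 The binding signal is a Z-score computed within each array and averaged over linkers. Arrays of the same protein sequence at different concentrations or buffers were also averaged together. Data originate from 3228 arrays in the Consortium for Functional Glycomics database, kept only where the protein sequence was available.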
# Man(a1-6)Man = target: Man(a1-6)Man
# Summary of the method: as §1
# Man(b1-4)GlcNAc = target: Man(b1-4)GlcNAc
# Summary of the method: as §1
# Neu5Ac(a2-3)Gal = target: Neu5Ac(a2-3)Gal
# Summary of the method: as §1
# [2] = target: Neu5Ac(a2-3)Gal(b1-3)GalNAc
# Summary of the method: as §1
# [3] = target: Neu5Ac(a2-3)Gal(b1-3)GalNAc(b1-3)Gal(a1-4)Gal(b1-4)Glc
# Summary of the method: as §1
# [4] = target: Neu5Ac(a2-3)Gal(b1-3)GalNAc(b1-3)Gal(b1-4)GlcNAc
# Summary of the method: as §1
# [5] = target: Neu5Ac(a2-3)Gal(b1-3)GalNAc(b1-4)[Neu5Ac(a2-3)]Gal(b1-4)Glc
# Summary of the method: as §1
# [6] = target: Neu5Ac(a2-3)Gal(b1-3)GalNAc6S
# Summary of the method: as §1
# [7] = target: Neu5Ac(a2-3)Gal(b1-3)GlcNAc
# Summary of the method: as §1
# [8] = target: Neu5Ac(a2-3)Gal(b1-3)GlcNAc(b1-3)Gal(b1-3)GlcNAc
# Summary of the method: as §1
# [9] = target: Neu5Ac(a2-3)Gal(b1-3)GlcNAc6S
# Summary of the method: as §1
# [10] = target: Neu5Ac(a2-3)Gal(b1-3)[Fuc(a1-4)]GlcNAc
# Summary of the method: as §1
# [11] = target: Neu5Ac(a2-3)Gal(b1-3)[Fuc(a1-4)]GlcNAc(b1-3)Gal(b1-3)[Fuc(a1-4)]GlcNAc
# Summary of the method: as §1
# [12] = target: Neu5Ac(a2-3)Gal(b1-3)[Fuc(a1-4)]GlcNAc(b1-3)Gal(b1-4)[Fuc(a1-3)]GlcNAc
# Summary of the method: as §1
# [13] = target: Neu5Ac(a2-3)Gal(b1-3)[Neu5Ac(a2-3)Gal(b1-4)]GlcNAc
# Summary of the method: as §1
# [14] = target: Neu5Ac(a2-3)Gal(b1-3)[Neu5Ac(a2-6)]GalNAc
# Summary of the method: as §1
# Neu5Ac(a2-3)Gal(b1-4)Glc = target: Neu5Ac(a2-3)Gal(b1-4)Glc
# Summary of the method: as §1
# [15] = target: Neu5Ac(a2-3)Gal(b1-4)GlcNAc
# Summary of the method: as §1
# [16] = target: Neu5Ac(a2-3)Gal(b1-4)GlcNAc(b1-2)Man(a1-3)[GlcNAc(b1-2)Man(b1-4)GlcNAc(b1-2)Man(a1-6)]Man(b1-4)GlcNAc(b1-4)GlcNAc
# Summary of the method: as §1
# [17] = target: Neu5Ac(a2-3)Gal(b1-4)GlcNAc(b1-2)Man(a1-3)[Neu5Ac(a2-6)Gal(b1-4)GlcNAc(b1-2)Man(a1-6)]Man(b1-4)GlcNAc(b1-4)GlcNAc
# Summary of the method: as §1
# [18] = target: Neu5Ac(a2-3)Gal(b1-4)GlcNAc(b1-3)Gal(b1-3)GlcNAc
# Summary of the method: as §1
# [19] = target: Neu5Ac(a2-3)Gal(b1-4)GlcNAc(b1-3)Gal(b1-4)GlcNAc
# Summary of the method: as §1
# [20] = target: Neu5Ac(a2-3)Gal(b1-4)GlcNAc(b1-3)Gal(b1-4)GlcNAc(b1-3)Gal(b1-4)GlcNAc
# Summary of the method: as §1
# [21] = target: Neu5Ac(a2-3)Gal(b1-4)GlcNAc(b1-3)Gal(b1-4)[Fuc(a1-3)]GlcNAc
# Summary of the method: as §1
# [22] = target: Neu5Ac(a2-3)Gal(b1-4)GlcNAc(b1-3)GalNAc
# Summary of the method: as §1
# [23] = target: Neu5Ac(a2-3)Gal(b1-4)GlcNAc(b1-6)[Gal(b1-3)]GalNAc
# Summary of the method: as §1
# [24] = target: Neu5Ac(a2-3)Gal(b1-4)GlcNAc(b1-6)[Neu5Ac(a2-3)Gal(b1-3)]GalNAc
# Summary of the method: as §1
# [25] = target: Neu5Ac(a2-3)Gal(b1-4)GlcNAc6S
# Summary of the method: as §1
binder,measurement,setting,value
"HHL-2 (Homo sapiens), P07307 (protein) MAKDFQDIQQLSSEENDHPFHQGEGPGTRRLNPRRGNPFLKGPPPAQPLAQRLCSMVCFSLLALSFNILLLVVICVTGSQSEGHRGAQLQAELRSLKEAFSNFSSSTLTEVQAISTHGGSVGDKITSLGAKLEKQQQDLKADHDALLFHLKHFPVDLRFVACQMELLHSNGSQRTCCPVNWVEHQGSCYWFSHSGKAWAEAEKYCQLENAHLVVINSWEEQKFIVQHTNPFNTWIGLTDSDGSWKWVDGTDYRHNYKNWAVTQPDNWHGHELGGSEDCVEVQPDGRWNDDFCLQVYRWVCEKRRNATGEVA",glycan array binding signal (z-score),[1],-0.176
same,glycan array binding signal (z-score),Man(a1-6)Man,-0.681
same,glycan array binding signal (z-score),Man(b1-4)GlcNAc,-0.772
same,glycan array binding signal (z-score),Neu5Ac(a2-3)Gal,0.507
same,glycan array binding signal (z-score),[2],-0.823
same,glycan array binding signal (z-score),[3],0.569
same,glycan array binding signal (z-score),[4],-0.403
same,glycan array binding signal (z-score),[5],0.348
same,glycan array binding signal (z-score),[6],0.143
same,glycan array binding signal (z-score),[7],-0.09
same,glycan array binding signal (z-score),[8],0.812
same,glycan array binding signal (z-score),[9],-0.064
same,glycan array binding signal (z-score),[10],-0.585
same,glycan array binding signal (z-score),[11],0.826
same,glycan array binding signal (z-score),[12],-0.645
same,glycan array binding signal (z-score),[13],-0.699
same,glycan array binding signal (z-score),[14],2.71
same,glycan array binding signal (z-score),Neu5Ac(a2-3)Gal(b1-4)Glc,-0.114
same,glycan array binding signal (z-score),[15],-0.209
same,glycan array binding signal (z-score),[16],2.39
same,glycan array binding signal (z-score),[17],-0.8
same,glycan array binding signal (z-score),[18],3.56
same,glycan array binding signal (z-score),[19],-0.514
same,glycan array binding signal (z-score),[20],1.5
same,glycan array binding signal (z-score),[21],1.82
same,glycan array binding signal (z-score),[22],-0.53
same,glycan array binding signal (z-score),[23],-0.954
same,glycan array binding signal (z-score),[24],2.27
same,glycan array binding signal (z-score),[25],-0.075

# Nothing new here: an excerpt of the list.
binder,measurement,setting,value
"HHL-2 (Homo sapiens), P07307 (protein) MAKDFQDIQQLSSEENDHPFHQGEGPGTRRLNPRRGNPFLKGPPPAQPLAQRLCSMVCFSLLALSFNILLLVVICVTGSQSEGHRGAQLQAELRSLKEAFSNFSSSTLTEVQAISTHGGSVGDKITSLGAKLEKQQQDLKADHDALLFHLKHFPVDLRFVACQMELLHSNGSQRTCCPVNWVEHQGSCYWFSHSGKAWAEAEKYCQLENAHLVVINSWEEQKFIVQHTNPFNTWIGLTDSDGSWKWVDGTDYRHNYKNWAVTQPDNWHGHELGGSEDCVEVQPDGRWNDDFCLQVYRWVCEKRRNATGEVA",glycan array binding signal (z-score),[16],2.39
same,glycan array binding signal (z-score),[17],-0.8
same,glycan array binding signal (z-score),[18],3.56
same,glycan array binding signal (z-score),[19],-0.514
same,glycan array binding signal (z-score),[20],1.5
same,glycan array binding signal (z-score),[21],1.82
same,glycan array binding signal (z-score),[22],-0.53
same,glycan array binding signal (z-score),[23],-0.954
same,glycan array binding signal (z-score),[24],2.27
